From the supplement of paper PMC10849652
Some of the results follow.

Chains of the proteins cited; added tags and fusions are not shown. Lines headed by an entry give the natural chain unless they say otherwise; changes in a name come on top.
UniProt Q16842: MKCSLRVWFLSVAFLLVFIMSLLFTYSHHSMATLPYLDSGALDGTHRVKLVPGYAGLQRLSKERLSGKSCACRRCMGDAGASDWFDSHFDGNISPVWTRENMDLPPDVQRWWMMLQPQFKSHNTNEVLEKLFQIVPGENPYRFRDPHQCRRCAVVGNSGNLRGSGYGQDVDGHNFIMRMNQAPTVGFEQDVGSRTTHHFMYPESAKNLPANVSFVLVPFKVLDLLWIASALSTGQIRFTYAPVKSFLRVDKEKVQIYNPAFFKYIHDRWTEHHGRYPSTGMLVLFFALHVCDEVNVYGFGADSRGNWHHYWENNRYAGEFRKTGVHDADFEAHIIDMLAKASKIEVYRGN
UniProt Q9H8P0: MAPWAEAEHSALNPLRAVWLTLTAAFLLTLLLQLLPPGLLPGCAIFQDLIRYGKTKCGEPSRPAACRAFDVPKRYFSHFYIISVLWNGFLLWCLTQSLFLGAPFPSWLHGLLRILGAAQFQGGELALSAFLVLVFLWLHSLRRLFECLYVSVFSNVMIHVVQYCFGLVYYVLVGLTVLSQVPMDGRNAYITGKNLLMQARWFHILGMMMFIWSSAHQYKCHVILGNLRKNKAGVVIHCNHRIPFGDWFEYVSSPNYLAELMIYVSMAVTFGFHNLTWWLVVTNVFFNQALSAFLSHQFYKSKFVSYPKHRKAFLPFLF
UniProt Q9P0W8: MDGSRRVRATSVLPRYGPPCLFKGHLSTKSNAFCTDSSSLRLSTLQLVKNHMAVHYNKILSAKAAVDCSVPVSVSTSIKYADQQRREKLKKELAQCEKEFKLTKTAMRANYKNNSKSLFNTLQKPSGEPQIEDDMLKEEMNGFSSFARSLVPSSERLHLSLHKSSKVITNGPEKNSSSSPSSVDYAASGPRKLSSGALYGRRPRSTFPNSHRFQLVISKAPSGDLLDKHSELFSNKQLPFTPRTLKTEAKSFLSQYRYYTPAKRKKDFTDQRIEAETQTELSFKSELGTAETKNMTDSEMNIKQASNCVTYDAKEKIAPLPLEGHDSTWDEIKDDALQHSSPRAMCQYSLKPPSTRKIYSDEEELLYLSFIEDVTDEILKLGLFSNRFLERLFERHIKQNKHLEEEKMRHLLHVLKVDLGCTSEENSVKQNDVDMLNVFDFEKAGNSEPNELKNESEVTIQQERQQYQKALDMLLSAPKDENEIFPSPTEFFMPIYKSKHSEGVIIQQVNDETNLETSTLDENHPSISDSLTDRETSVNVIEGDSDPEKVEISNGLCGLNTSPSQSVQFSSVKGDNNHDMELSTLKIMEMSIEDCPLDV
UniProt Q13586, whole entry, looked up: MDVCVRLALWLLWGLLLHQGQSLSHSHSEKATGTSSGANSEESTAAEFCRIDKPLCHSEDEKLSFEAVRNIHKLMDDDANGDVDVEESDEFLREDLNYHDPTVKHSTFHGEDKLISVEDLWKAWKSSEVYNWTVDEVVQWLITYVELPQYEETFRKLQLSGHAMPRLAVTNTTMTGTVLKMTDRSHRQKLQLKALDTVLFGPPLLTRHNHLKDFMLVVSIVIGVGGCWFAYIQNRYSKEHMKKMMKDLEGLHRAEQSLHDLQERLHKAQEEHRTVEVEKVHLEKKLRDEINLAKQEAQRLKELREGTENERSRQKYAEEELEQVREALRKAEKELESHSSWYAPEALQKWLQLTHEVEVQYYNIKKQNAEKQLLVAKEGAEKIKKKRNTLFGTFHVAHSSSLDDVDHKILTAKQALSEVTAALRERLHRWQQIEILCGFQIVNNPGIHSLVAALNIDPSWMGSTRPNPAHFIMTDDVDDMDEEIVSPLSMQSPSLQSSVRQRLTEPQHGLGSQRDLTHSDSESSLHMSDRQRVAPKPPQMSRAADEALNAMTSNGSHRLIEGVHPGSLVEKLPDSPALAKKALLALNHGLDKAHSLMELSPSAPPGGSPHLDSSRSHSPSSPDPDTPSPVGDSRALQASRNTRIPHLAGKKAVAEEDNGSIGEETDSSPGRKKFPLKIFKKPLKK
UniProt Q9NSC7: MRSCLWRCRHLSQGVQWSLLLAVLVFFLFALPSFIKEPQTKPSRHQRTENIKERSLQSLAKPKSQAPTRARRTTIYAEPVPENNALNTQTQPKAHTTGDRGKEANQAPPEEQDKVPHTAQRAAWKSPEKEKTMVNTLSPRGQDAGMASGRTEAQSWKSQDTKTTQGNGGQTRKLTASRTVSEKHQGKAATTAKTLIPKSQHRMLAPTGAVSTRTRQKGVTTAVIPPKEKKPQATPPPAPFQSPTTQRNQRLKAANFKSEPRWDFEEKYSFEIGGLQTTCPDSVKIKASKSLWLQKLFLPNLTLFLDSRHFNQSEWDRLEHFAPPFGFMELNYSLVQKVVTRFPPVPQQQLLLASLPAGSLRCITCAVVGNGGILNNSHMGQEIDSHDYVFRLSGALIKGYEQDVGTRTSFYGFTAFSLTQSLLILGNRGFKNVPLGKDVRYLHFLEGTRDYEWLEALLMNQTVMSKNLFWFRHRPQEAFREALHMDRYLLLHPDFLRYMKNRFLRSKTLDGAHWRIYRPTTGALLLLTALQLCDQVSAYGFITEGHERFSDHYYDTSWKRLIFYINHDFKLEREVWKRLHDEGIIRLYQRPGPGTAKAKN
UniProt O95793: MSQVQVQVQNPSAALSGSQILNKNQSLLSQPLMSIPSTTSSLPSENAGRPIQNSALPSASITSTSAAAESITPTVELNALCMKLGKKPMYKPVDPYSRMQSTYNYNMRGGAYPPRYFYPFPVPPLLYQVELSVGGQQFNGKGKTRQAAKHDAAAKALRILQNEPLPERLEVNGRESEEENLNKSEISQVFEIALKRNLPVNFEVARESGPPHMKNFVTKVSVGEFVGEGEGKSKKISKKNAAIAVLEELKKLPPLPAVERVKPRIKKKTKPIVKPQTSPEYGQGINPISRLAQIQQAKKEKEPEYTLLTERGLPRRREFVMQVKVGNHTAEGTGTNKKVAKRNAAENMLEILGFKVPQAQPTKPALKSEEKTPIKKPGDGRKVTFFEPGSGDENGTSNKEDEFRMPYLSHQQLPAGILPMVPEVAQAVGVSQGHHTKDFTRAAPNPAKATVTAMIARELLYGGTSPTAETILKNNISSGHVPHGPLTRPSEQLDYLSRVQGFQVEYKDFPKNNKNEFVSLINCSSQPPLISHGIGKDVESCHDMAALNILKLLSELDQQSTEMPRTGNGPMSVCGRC
UniProt O60225: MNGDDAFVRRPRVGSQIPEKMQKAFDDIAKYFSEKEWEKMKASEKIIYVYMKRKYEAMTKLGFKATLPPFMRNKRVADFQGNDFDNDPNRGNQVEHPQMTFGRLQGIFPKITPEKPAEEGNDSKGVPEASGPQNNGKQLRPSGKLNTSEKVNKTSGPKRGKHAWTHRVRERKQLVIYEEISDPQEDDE
UniProt Q68D10: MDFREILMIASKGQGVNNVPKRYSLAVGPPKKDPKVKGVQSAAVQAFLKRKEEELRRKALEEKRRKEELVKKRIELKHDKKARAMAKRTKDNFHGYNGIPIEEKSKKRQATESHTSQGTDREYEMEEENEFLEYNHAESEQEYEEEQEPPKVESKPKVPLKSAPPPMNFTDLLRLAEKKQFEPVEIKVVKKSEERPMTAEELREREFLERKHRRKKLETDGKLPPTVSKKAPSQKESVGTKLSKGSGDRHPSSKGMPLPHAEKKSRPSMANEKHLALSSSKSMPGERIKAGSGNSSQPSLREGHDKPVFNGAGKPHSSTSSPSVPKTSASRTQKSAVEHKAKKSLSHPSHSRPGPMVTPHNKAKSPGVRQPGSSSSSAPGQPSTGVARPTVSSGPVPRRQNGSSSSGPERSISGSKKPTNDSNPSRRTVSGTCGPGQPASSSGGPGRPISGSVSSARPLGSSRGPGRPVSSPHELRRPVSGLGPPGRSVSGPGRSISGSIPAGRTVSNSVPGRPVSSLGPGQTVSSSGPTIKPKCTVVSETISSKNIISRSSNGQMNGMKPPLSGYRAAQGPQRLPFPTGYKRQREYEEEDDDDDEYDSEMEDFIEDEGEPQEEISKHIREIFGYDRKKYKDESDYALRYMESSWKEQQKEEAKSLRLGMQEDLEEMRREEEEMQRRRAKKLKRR
UniProt Q07955, whole entry, looked up: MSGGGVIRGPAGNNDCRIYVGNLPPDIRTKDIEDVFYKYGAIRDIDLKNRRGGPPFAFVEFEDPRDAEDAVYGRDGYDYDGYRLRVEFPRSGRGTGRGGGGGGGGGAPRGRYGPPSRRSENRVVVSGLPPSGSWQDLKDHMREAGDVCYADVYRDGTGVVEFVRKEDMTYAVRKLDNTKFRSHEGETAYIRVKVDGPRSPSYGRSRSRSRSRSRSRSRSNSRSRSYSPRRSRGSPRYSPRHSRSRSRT
UniProt P11277, whole entry, looked up: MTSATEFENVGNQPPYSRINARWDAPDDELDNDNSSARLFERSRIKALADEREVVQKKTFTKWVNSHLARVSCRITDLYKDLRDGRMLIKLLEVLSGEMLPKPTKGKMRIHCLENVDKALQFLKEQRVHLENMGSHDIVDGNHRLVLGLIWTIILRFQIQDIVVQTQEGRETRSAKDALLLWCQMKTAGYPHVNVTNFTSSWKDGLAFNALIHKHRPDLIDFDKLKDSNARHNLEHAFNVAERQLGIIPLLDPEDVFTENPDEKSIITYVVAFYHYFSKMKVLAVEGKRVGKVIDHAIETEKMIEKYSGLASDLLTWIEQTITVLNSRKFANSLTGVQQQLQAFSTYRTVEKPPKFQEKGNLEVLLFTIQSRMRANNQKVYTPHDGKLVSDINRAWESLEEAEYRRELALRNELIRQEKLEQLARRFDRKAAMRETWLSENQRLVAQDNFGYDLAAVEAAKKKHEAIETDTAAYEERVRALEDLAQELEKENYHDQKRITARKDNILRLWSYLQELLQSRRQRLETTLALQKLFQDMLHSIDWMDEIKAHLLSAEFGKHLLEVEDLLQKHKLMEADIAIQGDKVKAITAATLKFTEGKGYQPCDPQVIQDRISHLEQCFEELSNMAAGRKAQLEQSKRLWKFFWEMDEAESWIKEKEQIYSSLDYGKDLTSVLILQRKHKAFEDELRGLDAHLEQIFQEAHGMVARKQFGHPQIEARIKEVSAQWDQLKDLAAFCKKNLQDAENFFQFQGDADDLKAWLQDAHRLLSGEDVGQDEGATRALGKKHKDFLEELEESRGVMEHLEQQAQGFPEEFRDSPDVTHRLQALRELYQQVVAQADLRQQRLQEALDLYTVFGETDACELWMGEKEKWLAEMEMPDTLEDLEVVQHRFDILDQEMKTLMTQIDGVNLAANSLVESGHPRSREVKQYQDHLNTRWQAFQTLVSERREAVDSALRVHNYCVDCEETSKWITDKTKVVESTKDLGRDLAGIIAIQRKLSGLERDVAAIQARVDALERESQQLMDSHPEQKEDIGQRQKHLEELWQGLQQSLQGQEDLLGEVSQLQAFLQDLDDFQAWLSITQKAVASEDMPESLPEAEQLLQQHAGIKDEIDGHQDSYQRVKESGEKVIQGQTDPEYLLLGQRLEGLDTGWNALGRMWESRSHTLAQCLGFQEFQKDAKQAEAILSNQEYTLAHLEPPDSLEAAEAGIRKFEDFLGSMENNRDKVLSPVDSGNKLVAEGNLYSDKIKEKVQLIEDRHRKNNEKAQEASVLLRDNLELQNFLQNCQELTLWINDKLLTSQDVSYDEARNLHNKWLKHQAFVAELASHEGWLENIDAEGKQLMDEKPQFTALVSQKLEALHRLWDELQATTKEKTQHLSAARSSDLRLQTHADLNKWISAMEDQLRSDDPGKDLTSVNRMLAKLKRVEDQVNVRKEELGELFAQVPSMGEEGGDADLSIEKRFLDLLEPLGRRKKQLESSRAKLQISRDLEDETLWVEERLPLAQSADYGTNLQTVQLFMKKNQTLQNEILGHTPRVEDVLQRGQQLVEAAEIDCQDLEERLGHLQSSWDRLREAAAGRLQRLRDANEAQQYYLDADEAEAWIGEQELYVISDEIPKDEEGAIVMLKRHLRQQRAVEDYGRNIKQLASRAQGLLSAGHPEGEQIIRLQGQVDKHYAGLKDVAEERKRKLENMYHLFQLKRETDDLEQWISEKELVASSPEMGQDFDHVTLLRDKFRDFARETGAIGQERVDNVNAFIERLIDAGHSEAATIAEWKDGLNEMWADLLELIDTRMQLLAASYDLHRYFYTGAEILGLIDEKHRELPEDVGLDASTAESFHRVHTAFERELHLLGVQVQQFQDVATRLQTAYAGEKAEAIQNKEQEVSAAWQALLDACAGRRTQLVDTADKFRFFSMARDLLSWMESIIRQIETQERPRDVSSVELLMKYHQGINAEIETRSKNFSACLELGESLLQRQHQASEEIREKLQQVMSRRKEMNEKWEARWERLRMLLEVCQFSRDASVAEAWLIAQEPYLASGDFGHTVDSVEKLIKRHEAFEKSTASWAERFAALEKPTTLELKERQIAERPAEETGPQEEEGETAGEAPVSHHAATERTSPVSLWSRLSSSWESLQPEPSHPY

How the values were obtained:
Experiment in all cases: log2 fold change, soluble protein after heating vs DMSO (PISA); higher = thermal stabilisation; K562 lysate, 10 uM; active = over 0.2 and 3.5 SD of the protein, either way, in both replicates (recomputed)
ibrutinib = compound: C=CC(=O)N1CCC[C@@H](n2nc(-c3ccc(Oc4ccccc4)cc3)c3c(N)ncnc32)C1 [ibrutinib]
Summary of the method: (§1)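 Following dounce homogenisation of K562 pellets in PBS pH 7.4 with 1 mM MgCl2, crude extract at 1 mg/mL protein was incubated for 30 min with 10 μM compound. Aliquots were then heated for 3 min over 48°C-58°C and pooled, NP-40 was added to 0.5% at 4°C, and soluble protein was recovered as the supernatant at 21,000xg for 90 min. Channel-sum-equalised TMTpro 16plex LC-MS/MS quantified this protein. Each value, from duplicates, is a log-two fold change in thermal stability relative to solvent controls.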

[1] = compound: CC(=O)c1cnc2ccc(-c3cc(Cl)c(O)c(Cl)c3)nc2c1N[C@H]1CC[C@H](CN(C)C)CC1
Summary of the method: as §1

ralimetinib = compound: CC(C)(C)Cn1c(N)nc2ccc(-c3[nH]c(C(C)(C)C)nc3-c3ccc(F)cc3)nc21 [ralimetinib]
Summary of the method: as §1

[2] = compound: CC(C)(O)CC(=O)NCCn1ccc2ncnc(Nc3ccc(Oc4cccc(C(F)(F)F)c4)c(Cl)c3)c21
Summary of the method: as §1

[3] = compound: CC(C)C1=C2N=C(C=C(N2N=C1)NCC3=CC=CC=C3)NCCCCCCN
Summary of the method: as §1

[4] = compound: CC1=C(C2=C(C=C1)C(=O)C3=CC=CC=C3N2CCCN)C
Summary of the method: as §1

[5] = compound: CC1=C(C=C(C=C1)NC(=O)C2=CC(=CC=C2)C(C)(C)C#N)NC3=CC4=C(C=C3)N=CN(C4=O)C
Summary of the method: as §1

[6] = compound: CC1=C(C=C(C=C1)NC(=O)C2=CC(=CC=C2)N(C)C)NC(=O)C3=CC=C(C=C3)O
Summary of the method: as §1

[7] = compound: CC1=CC=C(C=C1)SC2=C3C=C(SC3=CN=C2)C(=O)N
Summary of the method: as §1

vemurafenib = compound: CCCS(=O)(=O)Nc1ccc(F)c(C(=O)c2c[nH]c3ncc(-c4ccc(Cl)cc4)cc23)c1F [vemurafenib]
Summary of the method: as §1

[8] = compound: CCCS(=O)(=O)Nc1ccc(F)c(C(=O)c2c[nH]c3ncc(Cl)cc23)c1F
Summary of the method: as §1

barasertib = compound: CCN(CCCOc1ccc2c(Nc3cc(CC(=O)Nc4cccc(F)c4)[nH]n3)ncnc2c1)CCOP(=O)(O)O [barasertib]
Summary of the method: as §1

[9] = compound: CC[C@@H]1C(=O)N(C)c2cnc(Nc3ccc(C(=O)NC4CCN(C)CC4)cc3OC)nc2N1C1CCCC1
Summary of the method: as §1

volasertib = compound: CC[C@@H]1C(=O)N(C)c2cnc(Nc3ccc(C(=O)N[C@H]4CC[C@H](N5CCN(CC6CC6)CC5)CC4)cc3OC)nc2N1C(C)C [volasertib]
Summary of the method: as §1

[10] = compound: CCn1c(C(=O)N(C2CC2)C2CC2)cc2c3c(ncn3C)c(Nc3cc(C)n(C)n3)nc21
Summary of the method: as §1

[11] = compound: CCn1cc(-c2ccnc3[nH]c(-c4cccc(CN(C)C)c4)cc23)c(-c2ccc(NC(=O)N(C)C)cc2)n1
Summary of the method: as §1

[12] = compound: CN1CCC(CNc2ccc3ncc(-c4cccc(OC(F)(F)F)c4)n3n2)CC1
Summary of the method: as §1

saracatinib = compound: CN1CCN(CCOc2cc(OC3CCOCC3)c3c(Nc4c(Cl)ccc5c4OCO5)ncnc3c2)CC1 [saracatinib]
Summary of the method: as §1

sotrastaurin = compound: CN1CCN(c2nc(C3=C(c4c[nH]c5ccccc45)C(=O)NC3=O)c3ccccc3n2)CC1 [sotrastaurin]
Summary of the method: as §1

[13] = compound: CC1=C(C(CC(=O)N1)C2=CC=C(C=C2)C(F)(F)F)C(=O)NC3=C(C=C4C(=C3)C=NN4)F
Summary of the method: as §1

Measured: log2 fold change

ST3GAL2 (UniProt Q16842)
inactive: ibrutinib 0.011 | [1] 0.014 | ralimetinib 0.021 | [2] -0.047 | [3] 0.057 | [4] 0.005 | [5] -0.008 | [6] -0.01 | [7] 0.069 | vemurafenib 0.067 | [8] 0.017 | barasertib -0.002 | [9] 0.003 | volasertib 0.012 | [10] -0.01 | [11] -0.081 | [12] 0.014 | saracatinib 0.024 | sotrastaurin 0.056

SRD5A3 (UniProt Q9H8P0)
inactive: ibrutinib -0.109 | [1] 0.147 | ralimetinib -0.164 | [2] -0.277 | [3] 0.027 | [13] 0.022 | [4] 0.045 | [5] -0.31 | [6] 0.053 | [7] 0.042 | vemurafenib -0.034 | [8] 0.011 | barasertib -0.018 | [9] -0.392 | volasertib -0.117 | [10] 0.165 | saracatinib 0.036 | sotrastaurin -0.087

SPATA7 (UniProt Q9P0W8)
inactive: ibrutinib -0.017 | [1] -0.029 | [3] 0.074 | [13] -0.072 | [7] -0.055 | vemurafenib 0.362 | [8] -0.016 | barasertib 0.122 | [9] 0.288 | volasertib 0.059 | [11] 0.6 | [12] 0.001

STIM1 (UniProt Q13586)
inactive: ibrutinib 0.033 | [1] 0.043 | ralimetinib 0.023 | [2] -0.021 | [3] 0.027 | [13] 0.003 | [4] 0.023 | [5] 0.001 | [6] 0.008 | [7] 0.027 | vemurafenib 0.003 | [8] 0.012 | barasertib 0.036 | [9] -0.076 | volasertib 0.006 | [10] 0.048 | [11] 0.259 | [12] -0.205 | saracatinib 0.003 | sotrastaurin -0.01

ST6GALNAC1 (UniProt Q9NSC7)
inactive: ibrutinib 0.041 | ralimetinib 0.09 | [2] 0.023 | [3] -0.008 | [13] 0.091 | [4] -0.059 | [5] 0 | [6] -0.061 | vemurafenib -0.216 | barasertib 0.049 | [9] 0.098 | [10] 0.029 | [11] -0.065 | [12] 0.033 | saracatinib -0.063 | sotrastaurin -0.04

2 consecutive entries out of the list so far, for reference:
STIM1 (UniProt Q13586)
inactive: ibrutinib 0.033 | [1] 0.043 | ralimetinib 0.023 | [2] -0.021 | [3] 0.027 | [13] 0.003 | [4] 0.023 | [5] 0.001 | [6] 0.008 | [7] 0.027 | vemurafenib 0.003 | [8] 0.012 | barasertib 0.036 | [9] -0.076 | volasertib 0.006 | [10] 0.048 | [11] 0.259 | [12] -0.205 | saracatinib 0.003 | sotrastaurin -0.01

ST6GALNAC1 (UniProt Q9NSC7)
inactive: ibrutinib 0.041 | ralimetinib 0.09 | [2] 0.023 | [3] -0.008 | [13] 0.091 | [4] -0.059 | [5] 0 | [6] -0.061 | vemurafenib -0.216 | barasertib 0.049 | [9] 0.098 | [10] 0.029 | [11] -0.065 | [12] 0.033 | saracatinib -0.063 | sotrastaurin -0.04

The results go on.

SSBP4 (UniProt U3KPY3)
inactive: ibrutinib -0.049 | [13] 0.259 | vemurafenib 0.076 | barasertib -0.078 | [11] 0.064 | [12] 0.08

STAU1 isoform 3 (UniProt O95793)
inactive: ibrutinib -0.094 | [3] 0.028 | [13] 0.012 | [5] -0.064 | barasertib 0.014 | [11] -0.166 | [12] -0.016 | sotrastaurin 0.092

SSX5 isoform 2 (UniProt O60225)
inactive: ibrutinib -0.081 | [1] 0.028 | ralimetinib 0 | [2] 0.032 | [3] -0.261 | [13] -0.089 | [6] -0.018 | [7] -0.003 | vemurafenib 0.143 | [8] 0.062 | barasertib -0.065 | [9] -0.188 | volasertib 0.013 | [10] 0.031 | [12] 0.049
active: [11] -0.926

SPTY2D1 (UniProt Q68D10)
inactive: ibrutinib -0.013 | ralimetinib -0.037 | [2] 0.055 | [3] 0.056 | [13] -0.094 | [4] -0.024 | [5] -0.04 | [6] -0.006 | barasertib 0.14 | [10] 0.123 | [11] -0.02 | [12] 0.02 | saracatinib -0.028 | sotrastaurin -0.091

SRSF1 (UniProt Q07955)
inactive: ibrutinib -0.02 | [1] -0.011 | ralimetinib -0.003 | [2] -0.047 | [3] 0.001 | [13] 0.001 | [4] -0.009 | [5] 0.037 | [6] 0.003 | [7] -0.006 | vemurafenib 0.046 | [8] -0.007 | barasertib -0.021 | [9] -0.015 | volasertib 0.011 | [10] 0.015 | [11] 0.103 | [12] -0.027 | saracatinib -0.044 | sotrastaurin 0.007

SPTB isoform 2 (UniProt P11277)
inactive: ibrutinib -0.02 | [1] 0.003 | ralimetinib 0.021 | [2] 0.001 | [3] -0.003 | [13] 0.007 | [4] -0.016 | [5] 0.018 | [6] 0.043 | [7] -0.012 | vemurafenib 0.007 | [8] 0.004 | barasertib 0.025 | [9] -0.018 | volasertib -0.057 | [10] 0.022 | [11] -0.049 | [12] -0.063 | saracatinib -0.012 | sotrastaurin 0.024
